# Source: the supplement of paper PMC6411743
# Protein sequences, listed by entry. Tags and fused reporters are not part of them. Lines headed by an entry give the natural chain unless they say otherwise; changes in a name come on top.
# UniProt Q14997: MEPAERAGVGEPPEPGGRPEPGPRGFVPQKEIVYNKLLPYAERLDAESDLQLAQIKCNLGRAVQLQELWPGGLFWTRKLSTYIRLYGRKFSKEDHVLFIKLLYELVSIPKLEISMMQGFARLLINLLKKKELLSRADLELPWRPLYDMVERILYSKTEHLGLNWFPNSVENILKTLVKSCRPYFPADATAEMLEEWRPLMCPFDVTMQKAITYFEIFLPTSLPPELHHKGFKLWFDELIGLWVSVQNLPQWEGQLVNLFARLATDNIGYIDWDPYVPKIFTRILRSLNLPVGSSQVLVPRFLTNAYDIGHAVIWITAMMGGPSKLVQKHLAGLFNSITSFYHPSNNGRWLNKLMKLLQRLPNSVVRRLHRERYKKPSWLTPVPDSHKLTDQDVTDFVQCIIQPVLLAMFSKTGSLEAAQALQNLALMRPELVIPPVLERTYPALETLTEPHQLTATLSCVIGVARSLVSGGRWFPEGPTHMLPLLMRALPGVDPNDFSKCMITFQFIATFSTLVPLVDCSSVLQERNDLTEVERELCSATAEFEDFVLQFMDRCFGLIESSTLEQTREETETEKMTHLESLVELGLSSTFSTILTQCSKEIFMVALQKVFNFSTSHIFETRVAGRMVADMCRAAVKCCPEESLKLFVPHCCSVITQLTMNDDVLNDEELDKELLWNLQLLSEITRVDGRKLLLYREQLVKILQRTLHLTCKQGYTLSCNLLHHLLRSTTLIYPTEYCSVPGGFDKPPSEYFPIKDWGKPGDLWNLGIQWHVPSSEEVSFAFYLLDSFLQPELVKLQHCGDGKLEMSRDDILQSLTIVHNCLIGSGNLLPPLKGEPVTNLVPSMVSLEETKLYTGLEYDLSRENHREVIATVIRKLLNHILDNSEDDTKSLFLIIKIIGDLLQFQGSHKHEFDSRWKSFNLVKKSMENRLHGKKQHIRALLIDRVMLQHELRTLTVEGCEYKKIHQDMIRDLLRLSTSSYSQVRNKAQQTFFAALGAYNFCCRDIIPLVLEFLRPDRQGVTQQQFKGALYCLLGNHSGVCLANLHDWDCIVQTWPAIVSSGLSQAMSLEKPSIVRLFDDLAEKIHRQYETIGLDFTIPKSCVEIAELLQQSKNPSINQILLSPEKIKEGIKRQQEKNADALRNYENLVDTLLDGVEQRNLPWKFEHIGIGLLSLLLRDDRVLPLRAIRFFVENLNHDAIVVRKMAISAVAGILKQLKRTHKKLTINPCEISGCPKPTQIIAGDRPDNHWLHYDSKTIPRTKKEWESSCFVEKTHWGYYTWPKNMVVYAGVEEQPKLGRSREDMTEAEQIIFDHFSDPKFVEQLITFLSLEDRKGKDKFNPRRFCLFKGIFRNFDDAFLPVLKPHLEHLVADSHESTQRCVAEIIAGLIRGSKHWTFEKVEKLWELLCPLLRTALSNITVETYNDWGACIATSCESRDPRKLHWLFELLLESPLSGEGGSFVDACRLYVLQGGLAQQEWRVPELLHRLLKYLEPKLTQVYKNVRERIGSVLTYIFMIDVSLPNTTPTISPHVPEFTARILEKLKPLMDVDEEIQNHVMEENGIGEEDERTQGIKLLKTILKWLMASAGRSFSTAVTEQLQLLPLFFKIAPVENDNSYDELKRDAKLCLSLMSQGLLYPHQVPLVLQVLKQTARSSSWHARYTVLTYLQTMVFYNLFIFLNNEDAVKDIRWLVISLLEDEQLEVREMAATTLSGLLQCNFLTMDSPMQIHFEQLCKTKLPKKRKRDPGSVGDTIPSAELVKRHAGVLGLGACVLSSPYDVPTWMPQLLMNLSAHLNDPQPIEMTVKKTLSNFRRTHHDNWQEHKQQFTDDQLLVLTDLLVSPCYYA
# UniProt Q13907: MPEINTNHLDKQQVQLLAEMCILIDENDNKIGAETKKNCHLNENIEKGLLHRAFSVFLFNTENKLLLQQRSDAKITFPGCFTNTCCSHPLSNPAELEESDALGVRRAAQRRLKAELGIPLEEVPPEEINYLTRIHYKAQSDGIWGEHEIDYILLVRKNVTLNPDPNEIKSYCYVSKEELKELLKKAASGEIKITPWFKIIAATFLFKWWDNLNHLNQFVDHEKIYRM
# UniProt Q10589, whole entry: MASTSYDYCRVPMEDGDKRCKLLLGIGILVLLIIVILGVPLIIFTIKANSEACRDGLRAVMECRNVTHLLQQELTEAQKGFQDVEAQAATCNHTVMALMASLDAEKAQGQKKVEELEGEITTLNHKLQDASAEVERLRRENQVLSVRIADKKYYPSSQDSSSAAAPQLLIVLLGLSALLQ
# UniProt Q14181: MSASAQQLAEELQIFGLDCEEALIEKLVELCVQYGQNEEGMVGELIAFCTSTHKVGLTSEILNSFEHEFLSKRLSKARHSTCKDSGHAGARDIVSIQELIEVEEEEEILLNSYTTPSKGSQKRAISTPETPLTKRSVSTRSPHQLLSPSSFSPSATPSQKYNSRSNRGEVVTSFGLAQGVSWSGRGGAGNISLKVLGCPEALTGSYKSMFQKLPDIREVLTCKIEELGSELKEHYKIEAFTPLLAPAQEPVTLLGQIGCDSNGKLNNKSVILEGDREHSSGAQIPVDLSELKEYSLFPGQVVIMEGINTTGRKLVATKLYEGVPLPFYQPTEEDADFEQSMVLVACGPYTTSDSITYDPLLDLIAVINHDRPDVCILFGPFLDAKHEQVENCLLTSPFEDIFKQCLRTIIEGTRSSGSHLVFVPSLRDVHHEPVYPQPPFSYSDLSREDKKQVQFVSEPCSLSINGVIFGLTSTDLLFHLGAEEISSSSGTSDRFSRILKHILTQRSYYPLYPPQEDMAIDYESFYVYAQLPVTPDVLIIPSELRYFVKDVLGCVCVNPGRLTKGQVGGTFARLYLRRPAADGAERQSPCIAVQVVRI
# UniProt Q12873: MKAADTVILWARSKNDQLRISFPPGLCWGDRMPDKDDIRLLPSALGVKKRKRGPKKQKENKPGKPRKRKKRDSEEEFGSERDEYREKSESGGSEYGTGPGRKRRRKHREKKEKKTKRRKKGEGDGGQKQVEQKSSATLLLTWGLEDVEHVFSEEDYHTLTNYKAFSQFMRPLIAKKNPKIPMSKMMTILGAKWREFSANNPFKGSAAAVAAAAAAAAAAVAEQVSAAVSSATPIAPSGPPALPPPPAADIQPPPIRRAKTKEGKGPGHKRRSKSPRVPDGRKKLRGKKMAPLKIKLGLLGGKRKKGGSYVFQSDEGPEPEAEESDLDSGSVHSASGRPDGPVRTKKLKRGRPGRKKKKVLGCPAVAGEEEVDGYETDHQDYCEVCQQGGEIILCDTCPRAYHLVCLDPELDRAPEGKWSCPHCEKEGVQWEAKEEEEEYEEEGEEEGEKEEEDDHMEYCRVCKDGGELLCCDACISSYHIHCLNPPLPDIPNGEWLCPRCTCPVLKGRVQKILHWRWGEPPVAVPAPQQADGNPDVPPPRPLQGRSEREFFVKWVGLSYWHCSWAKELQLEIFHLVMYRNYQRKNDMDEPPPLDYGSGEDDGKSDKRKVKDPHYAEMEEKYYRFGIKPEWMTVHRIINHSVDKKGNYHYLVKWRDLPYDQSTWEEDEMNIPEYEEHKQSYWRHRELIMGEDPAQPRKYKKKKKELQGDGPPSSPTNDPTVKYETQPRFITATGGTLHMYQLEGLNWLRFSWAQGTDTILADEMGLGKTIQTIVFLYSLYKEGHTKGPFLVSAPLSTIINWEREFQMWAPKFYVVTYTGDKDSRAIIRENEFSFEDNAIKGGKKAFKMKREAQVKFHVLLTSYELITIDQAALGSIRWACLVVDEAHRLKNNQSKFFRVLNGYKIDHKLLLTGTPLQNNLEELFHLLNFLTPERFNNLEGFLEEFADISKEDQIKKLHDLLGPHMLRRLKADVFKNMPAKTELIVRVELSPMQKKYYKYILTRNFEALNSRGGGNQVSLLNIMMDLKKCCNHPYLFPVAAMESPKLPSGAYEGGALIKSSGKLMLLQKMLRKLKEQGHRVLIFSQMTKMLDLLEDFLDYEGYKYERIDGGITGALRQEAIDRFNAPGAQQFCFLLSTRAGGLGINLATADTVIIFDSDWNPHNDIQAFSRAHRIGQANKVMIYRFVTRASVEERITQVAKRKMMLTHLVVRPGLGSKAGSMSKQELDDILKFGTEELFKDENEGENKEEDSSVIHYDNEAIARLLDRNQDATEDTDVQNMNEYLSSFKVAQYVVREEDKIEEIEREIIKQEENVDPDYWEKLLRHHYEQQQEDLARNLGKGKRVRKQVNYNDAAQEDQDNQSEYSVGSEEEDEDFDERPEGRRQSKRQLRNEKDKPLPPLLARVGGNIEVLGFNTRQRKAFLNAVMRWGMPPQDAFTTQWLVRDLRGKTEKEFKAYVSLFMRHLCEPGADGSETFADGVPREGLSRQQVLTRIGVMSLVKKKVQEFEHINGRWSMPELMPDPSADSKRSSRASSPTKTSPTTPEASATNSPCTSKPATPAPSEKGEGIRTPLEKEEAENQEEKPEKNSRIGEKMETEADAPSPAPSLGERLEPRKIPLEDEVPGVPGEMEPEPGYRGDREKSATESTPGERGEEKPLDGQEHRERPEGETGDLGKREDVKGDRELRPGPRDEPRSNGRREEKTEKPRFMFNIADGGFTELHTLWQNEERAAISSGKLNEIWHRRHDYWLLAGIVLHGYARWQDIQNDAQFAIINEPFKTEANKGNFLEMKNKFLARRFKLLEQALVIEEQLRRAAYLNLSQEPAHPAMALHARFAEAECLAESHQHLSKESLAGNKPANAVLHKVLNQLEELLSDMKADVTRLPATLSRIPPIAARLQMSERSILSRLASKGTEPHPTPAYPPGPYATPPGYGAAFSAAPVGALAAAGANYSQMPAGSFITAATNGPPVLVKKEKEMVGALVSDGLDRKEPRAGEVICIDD
# UniProt Q13564: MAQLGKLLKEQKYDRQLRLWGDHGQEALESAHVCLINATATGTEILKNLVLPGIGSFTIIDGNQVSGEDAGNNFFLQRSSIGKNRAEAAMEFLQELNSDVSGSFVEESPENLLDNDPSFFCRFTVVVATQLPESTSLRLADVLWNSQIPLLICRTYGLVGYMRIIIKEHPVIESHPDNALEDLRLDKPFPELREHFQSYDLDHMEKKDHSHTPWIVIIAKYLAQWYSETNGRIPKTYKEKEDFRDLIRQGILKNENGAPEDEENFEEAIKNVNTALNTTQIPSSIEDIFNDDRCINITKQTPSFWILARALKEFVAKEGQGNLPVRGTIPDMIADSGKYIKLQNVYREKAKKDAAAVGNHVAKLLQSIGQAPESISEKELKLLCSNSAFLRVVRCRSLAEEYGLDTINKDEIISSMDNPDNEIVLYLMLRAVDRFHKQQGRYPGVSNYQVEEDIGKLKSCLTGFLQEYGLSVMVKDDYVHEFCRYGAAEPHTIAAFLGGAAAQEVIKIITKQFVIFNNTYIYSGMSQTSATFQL
# UniProt Q14671: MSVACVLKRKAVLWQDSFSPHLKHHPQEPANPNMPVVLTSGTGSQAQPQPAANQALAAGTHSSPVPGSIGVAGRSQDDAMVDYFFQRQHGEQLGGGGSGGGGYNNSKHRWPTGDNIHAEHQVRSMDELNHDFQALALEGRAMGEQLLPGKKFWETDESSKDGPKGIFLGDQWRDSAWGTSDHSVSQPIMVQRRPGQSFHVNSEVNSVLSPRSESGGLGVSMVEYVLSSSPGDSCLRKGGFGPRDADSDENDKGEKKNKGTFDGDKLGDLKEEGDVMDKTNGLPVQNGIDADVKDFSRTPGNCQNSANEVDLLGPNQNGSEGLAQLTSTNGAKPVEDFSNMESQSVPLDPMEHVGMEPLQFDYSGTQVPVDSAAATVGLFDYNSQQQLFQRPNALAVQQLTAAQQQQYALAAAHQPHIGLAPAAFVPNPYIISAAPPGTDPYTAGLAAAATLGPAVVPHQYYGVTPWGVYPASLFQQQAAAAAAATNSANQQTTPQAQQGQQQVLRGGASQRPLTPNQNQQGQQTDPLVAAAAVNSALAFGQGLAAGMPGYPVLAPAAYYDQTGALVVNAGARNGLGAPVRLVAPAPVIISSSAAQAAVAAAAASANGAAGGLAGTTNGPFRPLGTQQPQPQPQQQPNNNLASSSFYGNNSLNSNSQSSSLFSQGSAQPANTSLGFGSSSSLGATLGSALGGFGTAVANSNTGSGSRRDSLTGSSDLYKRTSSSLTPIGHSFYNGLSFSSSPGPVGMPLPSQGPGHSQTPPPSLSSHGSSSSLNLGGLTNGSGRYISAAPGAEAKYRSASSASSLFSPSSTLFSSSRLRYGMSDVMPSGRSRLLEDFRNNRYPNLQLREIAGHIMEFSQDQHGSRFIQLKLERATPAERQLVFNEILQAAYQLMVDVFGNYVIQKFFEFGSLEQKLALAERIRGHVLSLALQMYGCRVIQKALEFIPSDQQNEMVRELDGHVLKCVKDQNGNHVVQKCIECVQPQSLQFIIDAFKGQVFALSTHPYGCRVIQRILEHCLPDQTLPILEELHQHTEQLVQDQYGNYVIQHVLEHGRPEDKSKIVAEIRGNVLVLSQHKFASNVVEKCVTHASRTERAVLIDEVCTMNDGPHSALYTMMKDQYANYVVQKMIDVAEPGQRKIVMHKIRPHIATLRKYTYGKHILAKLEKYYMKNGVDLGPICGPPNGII
# ± gives the standard deviation of the averaged measurements. Only a part is listed here, and it is no random draw. Small differences around the control level are noise.
# Compound: Nc1ncnc2c1ncn2[C@@H]1O[C@H](COP(=O)(O)OP(=O)(O)NP(=O)(O)O)[C@@H](O)[C@H]1O [adenylyl imidodiphosphate]
# Test: NP40-soluble protein abundance relative to vehicle (solubility fold change) (ratio); higher = more soluble protein in presence of AMP-PNP
# Details: concentration: 0.1mM
# Procedure, shortened: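 In three independent experiments, Jurkat crude lysate made by Dounce homogenisation was treated for 10 min at room temperature and then 3 min at 37 °C with eight concentrations ranging from 0.1 to 10 mM. It was then solubilised with 0.8% NP40 plus benzonase for 60 min at 4 °C and ultracentrifuged. The supernatant was TMT-labelled for LC-MS/MS, and each value is the fold change against the detergent-processed vehicle for the same replicate, using vsn-normalised intensities.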
row,Target,NP40-soluble protein abundance
1,UniProt Q13505 and related entries,1.02 ± 0.041
2,NNT (UniProt Q13423),0.9793 ± 0.0018
3,LCP2 (UniProt Q13094),0.979 ± 0.013
4,RBL2 (UniProt Q08999),0.965 ± 0.016
5,CUL4A (UniProt Q13619),1.01 ± 0.029
6,PSME4 (UniProt Q14997),1.06 ± 0.03
7,SAFB2 (UniProt Q14151),1.04 ± 0.019
8,IDI1 (UniProt Q13907),1.01 ± 0.018
9,UniProt Q10589 and related entries,0.9983 ± 0.004
10,POLA2 (UniProt Q14181),1 ± 0.04
11,UniProt Q13535 and related entries,1 ± 0.05
12,WDR43 (UniProt Q15061),0.9962 ± 0.006
13,EP300 (UniProt Q09472),1.005 ± 0.0053
14,UniProt Q12873 and related entries,1 ± 0.018
15,UniProt Q13330 and related entries,1.03 ± 0.016
16,EIF3A (UniProt Q14152),1.03 ± 0.025
17,UniProt Q14C86-6|Q14C86 and related entries,0.997 ± 0.011
18,UniProt Q13308 and related entries,0.978 ± 0.02
19,FHL3 (UniProt Q13643),0.962 ± 0.025
20,UniProt Q12797 and related entries,0.98 ± 0.059
21,CIRBP (UniProt Q14011),1.01 ± 0.027
22,UniProt Q13564 and related entries,0.992 ± 0.049
23,UniProt Q14697 and related entries,0.997 ± 0.034
24,UniProt Q13045 and related entries,1.04 ± 0.026
25,UniProt Q14671 and related entries,0.966 ± 0.019
26,SNX1 (UniProt Q13596),1 ± 0.016

# Entries 4 through 5, reprinted for reference:
row,Target,NP40-soluble protein abundance
4,RBL2 (UniProt Q08999),0.965 ± 0.016
5,CUL4A (UniProt Q13619),1.01 ± 0.029
